In the supplement of paper PMC10849652:
This is one part of the list.

Amino acid sequences for entries named in this document (tags omitted). A change or cut given only in a name is not applied to a line headed by its entry.
UniProt Q9C0J8: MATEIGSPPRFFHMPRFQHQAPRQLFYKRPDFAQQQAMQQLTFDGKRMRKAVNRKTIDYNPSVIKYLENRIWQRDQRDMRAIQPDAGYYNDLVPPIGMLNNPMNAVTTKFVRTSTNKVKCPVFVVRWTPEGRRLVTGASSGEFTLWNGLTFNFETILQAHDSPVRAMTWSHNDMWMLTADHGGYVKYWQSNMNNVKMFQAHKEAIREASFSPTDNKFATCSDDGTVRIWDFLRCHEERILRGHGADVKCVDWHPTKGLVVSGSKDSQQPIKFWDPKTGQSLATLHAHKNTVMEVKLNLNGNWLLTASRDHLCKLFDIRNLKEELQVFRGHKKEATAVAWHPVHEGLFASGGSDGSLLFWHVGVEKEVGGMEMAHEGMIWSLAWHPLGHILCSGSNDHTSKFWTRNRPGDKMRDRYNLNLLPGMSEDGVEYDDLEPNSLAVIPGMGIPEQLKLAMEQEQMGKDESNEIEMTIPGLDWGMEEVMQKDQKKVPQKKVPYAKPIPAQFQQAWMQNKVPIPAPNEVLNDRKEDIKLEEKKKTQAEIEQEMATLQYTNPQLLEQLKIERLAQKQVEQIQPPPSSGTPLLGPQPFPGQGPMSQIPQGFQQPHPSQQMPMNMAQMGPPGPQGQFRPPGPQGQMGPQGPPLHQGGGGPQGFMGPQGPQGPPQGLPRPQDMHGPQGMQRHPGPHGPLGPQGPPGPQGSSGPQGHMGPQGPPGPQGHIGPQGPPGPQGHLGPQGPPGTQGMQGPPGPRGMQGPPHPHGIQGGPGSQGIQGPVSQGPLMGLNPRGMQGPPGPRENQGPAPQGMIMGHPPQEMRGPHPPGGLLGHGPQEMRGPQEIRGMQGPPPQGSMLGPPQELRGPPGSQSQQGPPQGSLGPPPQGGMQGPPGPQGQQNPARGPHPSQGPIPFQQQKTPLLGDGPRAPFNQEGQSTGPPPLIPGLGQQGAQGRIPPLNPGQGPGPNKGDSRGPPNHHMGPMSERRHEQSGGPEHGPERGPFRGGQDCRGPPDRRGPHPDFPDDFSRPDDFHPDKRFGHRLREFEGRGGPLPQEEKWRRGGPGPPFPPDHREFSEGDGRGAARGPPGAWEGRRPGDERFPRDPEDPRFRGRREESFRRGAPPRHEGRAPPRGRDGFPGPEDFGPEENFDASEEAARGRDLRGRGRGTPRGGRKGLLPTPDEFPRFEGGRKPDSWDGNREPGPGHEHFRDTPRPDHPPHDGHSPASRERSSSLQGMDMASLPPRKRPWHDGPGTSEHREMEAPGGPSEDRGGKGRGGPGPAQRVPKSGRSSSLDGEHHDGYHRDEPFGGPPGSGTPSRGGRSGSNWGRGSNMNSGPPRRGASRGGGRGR
UniProt Q5MNZ9: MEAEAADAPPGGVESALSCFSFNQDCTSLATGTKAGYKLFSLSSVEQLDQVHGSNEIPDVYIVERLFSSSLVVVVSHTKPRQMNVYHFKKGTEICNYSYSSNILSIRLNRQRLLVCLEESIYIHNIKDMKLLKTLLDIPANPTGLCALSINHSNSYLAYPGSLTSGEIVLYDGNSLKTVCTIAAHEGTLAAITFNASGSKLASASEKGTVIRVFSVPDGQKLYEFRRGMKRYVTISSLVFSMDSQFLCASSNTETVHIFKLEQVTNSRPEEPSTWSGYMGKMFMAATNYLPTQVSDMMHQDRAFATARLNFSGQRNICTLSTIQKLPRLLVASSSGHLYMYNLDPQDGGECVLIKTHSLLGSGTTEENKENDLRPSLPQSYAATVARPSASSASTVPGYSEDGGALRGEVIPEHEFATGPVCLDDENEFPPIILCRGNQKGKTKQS
UniProt Q7Z5U6: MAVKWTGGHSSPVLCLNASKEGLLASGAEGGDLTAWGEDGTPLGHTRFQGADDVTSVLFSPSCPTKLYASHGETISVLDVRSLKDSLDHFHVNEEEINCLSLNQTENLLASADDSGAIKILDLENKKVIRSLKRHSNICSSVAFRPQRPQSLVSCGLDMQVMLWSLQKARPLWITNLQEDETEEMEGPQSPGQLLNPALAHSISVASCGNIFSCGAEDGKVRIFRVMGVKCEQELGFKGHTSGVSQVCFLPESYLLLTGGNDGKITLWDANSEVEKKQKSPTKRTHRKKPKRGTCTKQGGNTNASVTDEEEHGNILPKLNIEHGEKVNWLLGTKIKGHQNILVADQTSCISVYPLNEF
UniProt O43516: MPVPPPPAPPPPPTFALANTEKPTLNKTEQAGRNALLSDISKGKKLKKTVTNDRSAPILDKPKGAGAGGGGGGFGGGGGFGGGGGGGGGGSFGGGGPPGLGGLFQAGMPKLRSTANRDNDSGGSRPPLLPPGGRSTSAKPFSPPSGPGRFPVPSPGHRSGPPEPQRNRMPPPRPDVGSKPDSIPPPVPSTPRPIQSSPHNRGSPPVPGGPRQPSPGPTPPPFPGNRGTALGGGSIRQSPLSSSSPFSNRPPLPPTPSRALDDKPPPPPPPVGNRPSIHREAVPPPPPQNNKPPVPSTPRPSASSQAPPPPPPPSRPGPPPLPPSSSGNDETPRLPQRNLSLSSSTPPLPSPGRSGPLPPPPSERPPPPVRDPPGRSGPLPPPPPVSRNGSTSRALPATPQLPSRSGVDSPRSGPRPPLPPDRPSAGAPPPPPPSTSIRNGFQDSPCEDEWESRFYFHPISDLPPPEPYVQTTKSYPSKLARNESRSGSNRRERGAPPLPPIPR
UniProt Q96AX1: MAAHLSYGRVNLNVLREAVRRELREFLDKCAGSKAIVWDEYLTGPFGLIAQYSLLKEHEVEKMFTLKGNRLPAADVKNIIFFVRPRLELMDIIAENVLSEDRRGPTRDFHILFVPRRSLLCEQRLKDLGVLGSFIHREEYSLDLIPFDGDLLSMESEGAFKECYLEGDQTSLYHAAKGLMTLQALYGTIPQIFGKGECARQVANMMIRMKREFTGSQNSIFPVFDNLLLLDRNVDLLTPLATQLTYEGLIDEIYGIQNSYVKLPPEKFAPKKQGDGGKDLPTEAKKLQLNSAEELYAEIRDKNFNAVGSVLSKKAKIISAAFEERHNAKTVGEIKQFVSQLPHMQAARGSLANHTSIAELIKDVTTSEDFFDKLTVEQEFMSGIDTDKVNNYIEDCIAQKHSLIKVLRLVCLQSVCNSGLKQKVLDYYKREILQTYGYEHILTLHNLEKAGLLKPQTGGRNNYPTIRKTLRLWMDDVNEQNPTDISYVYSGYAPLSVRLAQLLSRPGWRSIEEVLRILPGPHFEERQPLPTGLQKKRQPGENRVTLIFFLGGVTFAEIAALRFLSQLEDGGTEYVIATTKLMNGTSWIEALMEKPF
UniProt Q9H9C1: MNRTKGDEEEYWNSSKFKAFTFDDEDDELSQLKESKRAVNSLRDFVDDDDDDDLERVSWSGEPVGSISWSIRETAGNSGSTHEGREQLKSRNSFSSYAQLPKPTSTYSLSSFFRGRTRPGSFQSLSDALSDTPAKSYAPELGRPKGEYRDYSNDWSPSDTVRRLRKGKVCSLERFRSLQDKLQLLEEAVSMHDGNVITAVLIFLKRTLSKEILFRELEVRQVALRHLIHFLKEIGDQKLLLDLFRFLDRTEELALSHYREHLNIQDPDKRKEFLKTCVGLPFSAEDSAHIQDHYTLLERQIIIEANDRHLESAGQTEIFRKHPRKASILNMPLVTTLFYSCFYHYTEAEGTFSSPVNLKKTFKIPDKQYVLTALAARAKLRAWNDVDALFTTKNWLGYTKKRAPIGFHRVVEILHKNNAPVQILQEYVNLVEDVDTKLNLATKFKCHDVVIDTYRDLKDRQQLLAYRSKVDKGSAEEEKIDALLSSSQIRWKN
UniProt Q15906, whole entry, looked up: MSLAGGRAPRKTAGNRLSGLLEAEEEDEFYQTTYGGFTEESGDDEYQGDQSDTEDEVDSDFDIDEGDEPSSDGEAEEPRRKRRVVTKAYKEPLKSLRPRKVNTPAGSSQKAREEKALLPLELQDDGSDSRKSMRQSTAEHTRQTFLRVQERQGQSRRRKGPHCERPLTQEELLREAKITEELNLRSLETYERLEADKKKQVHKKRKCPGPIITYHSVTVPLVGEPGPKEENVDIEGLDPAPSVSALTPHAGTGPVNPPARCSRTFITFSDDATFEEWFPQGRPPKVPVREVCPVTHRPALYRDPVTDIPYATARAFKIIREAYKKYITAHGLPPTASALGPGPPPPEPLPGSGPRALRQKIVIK
UniProt Q9Y3C0: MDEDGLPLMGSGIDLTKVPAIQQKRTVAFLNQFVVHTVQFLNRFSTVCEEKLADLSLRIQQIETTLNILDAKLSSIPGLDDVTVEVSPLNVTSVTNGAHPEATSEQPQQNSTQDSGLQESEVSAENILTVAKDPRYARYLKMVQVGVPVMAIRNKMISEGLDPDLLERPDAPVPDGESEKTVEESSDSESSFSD
UniProt Q69YN4: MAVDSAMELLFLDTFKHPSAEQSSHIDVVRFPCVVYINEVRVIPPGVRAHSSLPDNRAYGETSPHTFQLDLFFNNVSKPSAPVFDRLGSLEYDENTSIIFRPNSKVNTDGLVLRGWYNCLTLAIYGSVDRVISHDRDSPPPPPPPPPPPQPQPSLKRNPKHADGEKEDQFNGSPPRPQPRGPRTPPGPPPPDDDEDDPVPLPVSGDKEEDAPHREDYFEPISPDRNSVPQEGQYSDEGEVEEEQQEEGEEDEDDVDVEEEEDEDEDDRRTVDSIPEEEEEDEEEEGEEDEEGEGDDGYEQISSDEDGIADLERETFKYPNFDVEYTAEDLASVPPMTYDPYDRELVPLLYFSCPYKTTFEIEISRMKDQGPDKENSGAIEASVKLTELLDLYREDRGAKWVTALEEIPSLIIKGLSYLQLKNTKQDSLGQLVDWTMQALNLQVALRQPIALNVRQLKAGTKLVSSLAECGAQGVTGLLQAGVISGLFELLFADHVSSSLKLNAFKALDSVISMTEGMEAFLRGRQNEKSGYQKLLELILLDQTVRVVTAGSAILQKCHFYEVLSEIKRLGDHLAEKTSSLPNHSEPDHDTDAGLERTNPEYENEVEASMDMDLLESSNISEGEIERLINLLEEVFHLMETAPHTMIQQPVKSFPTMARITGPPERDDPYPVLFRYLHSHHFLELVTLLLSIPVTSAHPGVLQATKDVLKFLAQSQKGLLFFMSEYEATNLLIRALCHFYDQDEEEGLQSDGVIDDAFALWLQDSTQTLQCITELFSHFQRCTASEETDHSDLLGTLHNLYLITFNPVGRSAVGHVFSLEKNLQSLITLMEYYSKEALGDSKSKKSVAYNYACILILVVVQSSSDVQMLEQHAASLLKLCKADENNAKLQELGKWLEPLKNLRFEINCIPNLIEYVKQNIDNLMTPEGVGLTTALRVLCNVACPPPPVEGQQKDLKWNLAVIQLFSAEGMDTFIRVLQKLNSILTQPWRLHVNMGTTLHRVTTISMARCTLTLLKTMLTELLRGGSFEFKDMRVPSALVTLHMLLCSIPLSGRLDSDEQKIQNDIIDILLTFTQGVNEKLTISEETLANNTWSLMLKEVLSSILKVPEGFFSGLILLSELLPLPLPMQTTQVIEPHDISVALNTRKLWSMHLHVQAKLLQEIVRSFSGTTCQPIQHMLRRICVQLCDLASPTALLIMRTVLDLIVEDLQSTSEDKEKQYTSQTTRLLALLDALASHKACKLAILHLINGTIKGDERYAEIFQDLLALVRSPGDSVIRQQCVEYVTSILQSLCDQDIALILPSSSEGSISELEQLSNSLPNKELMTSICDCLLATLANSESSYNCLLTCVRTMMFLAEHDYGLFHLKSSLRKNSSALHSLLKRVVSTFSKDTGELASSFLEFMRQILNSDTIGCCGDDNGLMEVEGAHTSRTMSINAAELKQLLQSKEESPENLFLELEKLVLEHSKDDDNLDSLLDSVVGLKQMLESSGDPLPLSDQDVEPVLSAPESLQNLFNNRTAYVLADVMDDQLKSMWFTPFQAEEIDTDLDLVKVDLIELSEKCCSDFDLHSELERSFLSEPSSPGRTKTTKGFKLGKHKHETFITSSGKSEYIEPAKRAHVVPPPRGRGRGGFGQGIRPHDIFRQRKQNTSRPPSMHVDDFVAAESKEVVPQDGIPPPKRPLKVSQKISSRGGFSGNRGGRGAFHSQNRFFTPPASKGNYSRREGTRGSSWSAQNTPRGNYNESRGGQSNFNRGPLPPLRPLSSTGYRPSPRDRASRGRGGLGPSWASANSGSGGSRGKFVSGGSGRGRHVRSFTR
UniProt Q9Y4P8: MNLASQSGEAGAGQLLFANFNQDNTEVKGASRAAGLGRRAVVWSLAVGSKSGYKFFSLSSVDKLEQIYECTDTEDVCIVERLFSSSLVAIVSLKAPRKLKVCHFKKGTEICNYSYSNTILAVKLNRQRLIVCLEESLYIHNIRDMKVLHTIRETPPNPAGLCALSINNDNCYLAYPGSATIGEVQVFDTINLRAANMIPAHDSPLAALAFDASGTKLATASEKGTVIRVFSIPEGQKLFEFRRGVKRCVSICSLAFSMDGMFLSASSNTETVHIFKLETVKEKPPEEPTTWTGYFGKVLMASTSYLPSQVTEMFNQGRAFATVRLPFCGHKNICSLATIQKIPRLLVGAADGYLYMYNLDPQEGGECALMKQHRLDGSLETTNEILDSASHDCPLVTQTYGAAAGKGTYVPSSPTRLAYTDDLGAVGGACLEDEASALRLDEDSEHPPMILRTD

Legend:
Assay in all cases: log2 fold change, soluble protein after heating vs DMSO (PISA); higher = thermal stabilisation; K562 cells, 10 uM, 30 min; active = over 0.2 and 3.5 SD of the protein, either way, in both replicates (recomputed)
[1] = compound: CC1=C(C=C(C=C1)NC(=O)C2=CC(=CC=C2)C(C)(C)C#N)NC3=CC4=C(C=C3)N=CN(C4=O)C
How it was run: (§1)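 K562 cells at 2×10^6 cells/mL were given 10 μM compound for 30 min. Aliquots then went through 3 min of heating across 48°C-58°C, were pooled, and were extracted in PBS with 0.5% NP-40 at 4°C, and the supernatant after 21,000xg for 90 min was quantified by TMTpro 16plex LC-MS/MS with channel sums equalised. Thermal stability relative to control samples, from duplicates, is given as log2 fold change.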

[2] = compound: CC1=C(C=C(C=C1)NC(=O)C2=CC(=CC=C2)N(C)C)NC(=O)C3=CC=C(C=C3)O
How it was run: as §1

[3] = compound: CC1=CC=C(C=C1)SC2=C3C=C(SC3=CN=C2)C(=O)N
How it was run: as §1

[4] = compound: CC1=NC(=CC=C1)C2=C(N=C(N2)C(C)(C)C)C3=CC4=NC=CN=C4C=C3
How it was run: as §1

[5] = compound: CCCCN(Cc1ccc(C(=O)NO)cc1)C(=O)Nc1ccccc1 [Nexturastat A]
How it was run: as §1

[6] = compound: CCCS(=O)(=O)Nc1ccc(F)c(C(=O)c2c[nH]c3ncc(-c4ccc(Cl)cc4)cc23)c1F [vemurafenib]
How it was run: as §1

[7] = compound: CCCS(=O)(=O)Nc1ccc(F)c(C(=O)c2c[nH]c3ncc(Cl)cc23)c1F
How it was run: as §1

[8] = compound: CCCc1cc(C)[nH]c(=O)c1CNC(=O)c1cc(-c2ccnc(N3CCN(C)CC3)c2)cc2c1cnn2C(C)C
How it was run: as §1

[9] = compound: CCN(CC)Cc1ccc2cc(COC(=O)Nc3ccc(C(=O)NO)cc3)ccc2c1 [givinostat]
How it was run: as §1

[10] = compound: CCN(CCCOc1ccc2c(Nc3cc(CC(=O)Nc4cccc(F)c4)[nH]n3)ncnc2c1)CCOP(=O)(O)O [barasertib]
How it was run: as §1

[11] = compound: CC[C@@H]1C(=O)N(C)c2cnc(Nc3ccc(C(=O)NC4CCN(C)CC4)cc3OC)nc2N1C1CCCC1
How it was run: as §1

[12] = compound: CC[C@@H]1C(=O)N(C)c2cnc(Nc3ccc(C(=O)N[C@H]4CC[C@H](N5CCN(CC6CC6)CC5)CC4)cc3OC)nc2N1C(C)C [volasertib]
How it was run: as §1

[13] = compound: CC[C@H](C)N1C=C(C2=C(C=C(C=C21)C3=CN=C(C=C3)N4CCNCC4)C(=O)NCC5=C(C=C(NC5=O)C)C)C
How it was run: as §1

[14] = compound: CC[C@H](C)[C@@H](C(=O)N[C@@H]([C@@H](C)O)C(=O)N[C@@H](CC(C)C)C(=O)[C@]1(CO1)C)NC(=O)[C@H]([C@@H](C)CC)N(C)C(=O)C [epoxomicin]
How it was run: as §1

[15] = compound: CCn1cc(-c2ccnc3[nH]c(-c4cccc(CN(C)C)c4)cc23)c(-c2ccc(NC(=O)N(C)C)cc2)n1
How it was run: as §1

[16] = compound: CN(C)CC(=O)Nc1ccc2[nH]c(=O)c3ccccc3c2c1
How it was run: as §1

[17] = compound: CN1C2=C(C3=C1C(=O)N(N=C3)CC4=CC(=CC=C4)N)SC(=C2)S(=O)C
How it was run: as §1

[18] = compound: CN1CCC(CNc2ccc3ncc(-c4cccc(OC(F)(F)F)c4)n3n2)CC1
How it was run: as §1

[19] = compound: CCn1c(C(=O)N(C2CC2)C2CC2)cc2c3c(ncn3C)c(Nc3cc(C)n(C)n3)nc21
How it was run: as §1

[20] = compound: CN(CCOC1=CC=C(C=C1)C[C@H]2C(=O)NC(=O)S2)C3=CC=CC=N3 (racemic) [rosiglitazone]
How it was run: as §1

Target | log2 fold change [1] | log2 fold change [2] | log2 fold change [3] | log2 fold change [4] | log2 fold change [5] | log2 fold change [6] | log2 fold change [7] | log2 fold change [8] | log2 fold change [9] | log2 fold change [10] | log2 fold change [11] | log2 fold change [12] | log2 fold change [13] | log2 fold change [14] | log2 fold change [15] | log2 fold change [16] | log2 fold change [17] | log2 fold change [18] | log2 fold change [19] | log2 fold change [20]
VTI1A (UniProt Q96AJ9) | inactive: -0.039 | inactive: 0.015 | inactive: 0.011 | inactive: 0.095 | inactive: -0.023 | inactive: -0.014 | inactive: -0.035 | inactive: 0.052 | inactive: -0.013 | inactive: -0.009 | inactive: 0.051 | inactive: -0.002 | inactive: -0.026 | inactive: 0.006 | inactive: 0.068 | inactive: 0.028 | inactive: 0.01 | active: -0.219 |  | 
WTAP (UniProt Q15007) | inactive: -0.016 |  | inactive: 0.069 |  |  | inactive: 0.091 | inactive: -0.041 |  | inactive: 0.123 |  | inactive: -0.3 | inactive: -0.115 |  |  |  | inactive: 0.028 | inactive: 0.261 |  | inactive: -0.119 | 
WDR33 (UniProt Q9C0J8) | inactive: -0.001 | inactive: 0.136 | inactive: -0.047 |  | inactive: -0.013 | inactive: -0.147 | inactive: -0.063 | inactive: -0.008 | inactive: 0.088 | inactive: -0.162 | inactive: -0.027 | inactive: 0.143 | inactive: -0.033 | inactive: 0.257 |  | inactive: -0.066 |  |  | inactive: 0.034 | inactive: 0.009
WIPI1 (UniProt Q5MNZ9) | inactive: -0.085 | inactive: 0.03 | inactive: -0.051 | inactive: 0.018 | inactive: 0.05 |  | inactive: -0.139 | inactive: -0.126 | inactive: 0 | inactive: 0.029 | inactive: -0.089 | inactive: 0.023 | inactive: 0.017 | inactive: -0.057 | inactive: -0.066 |  | inactive: -0.038 | inactive: -0.219 | inactive: 0.063 | inactive: 0.037
WDR53 (UniProt Q7Z5U6) | inactive: 0.032 | inactive: -0.128 | inactive: 0.019 | inactive: 0.136 |  | inactive: 0.035 | inactive: 0.033 | inactive: 0 | inactive: -0.033 | inactive: 0.003 | inactive: -0.021 | inactive: -0.008 |  |  | inactive: 0.015 | inactive: -0.148 | inactive: 0.068 | inactive: 0.037 | inactive: 0.015 | inactive: -0.02
WARS1 (UniProt G3V277) | inactive: 0.02 |  |  | inactive: -0.043 |  | active: -0.587 |  | inactive: -0.338 | inactive: 0.141 | inactive: 0.073 |  |  | inactive: -0.041 |  | inactive: 0.098 | inactive: -0.163 |  | inactive: -0.12 |  | 
WIPF1 isoform 3 (UniProt O43516) | inactive: -0.081 | inactive: -0.044 | inactive: 0.272 | inactive: -0.035 |  | inactive: -0.04 | inactive: -0.071 | inactive: -0.844 | inactive: 0.09 | inactive: 0.028 | inactive: -0.001 | inactive: 0.124 | inactive: 0.025 |  | inactive: -0.024 | inactive: -0.162 | inactive: 0.178 | inactive: -0.096 | inactive: 0.097 | inactive: -0.073
VPS33A (UniProt Q96AX1) | inactive: -0.013 | inactive: -0.074 | inactive: -0.016 | inactive: -0.021 | inactive: -0.024 | inactive: 0.003 | inactive: 0.036 | inactive: 0.04 | inactive: 0.058 | inactive: 0.068 | inactive: -0.224 | active: -0.359 | inactive: 0.043 | inactive: 0.039 | inactive: -0.004 | inactive: 0.059 | inactive: 0.035 | inactive: -0.208 |  | 
VIPAS39 (UniProt Q9H9C1) | inactive: -0.366 |  | inactive: 0.032 |  |  | inactive: 0.077 | inactive: 0.146 | inactive: -0.077 | inactive: 0.052 | inactive: -0.093 |  | inactive: -0.402 | inactive: 0.257 |  |  | inactive: 0.139 | inactive: 0.096 |  | inactive: -0.044 | inactive: 0.297
VDAC2 (UniProt Q5JSD2) | inactive: -0.075 |  | inactive: -0.165 |  | inactive: 0.089 |  | inactive: -0.241 | inactive: -0.297 |  | inactive: -0.019 | inactive: 0.265 | inactive: 0.034 | inactive: -0.204 | inactive: 0.049 | inactive: 0.181 |  |  | inactive: -0.035 |  | 
VPS72 isoform 2 (UniProt Q15906) | inactive: -0.051 | inactive: 0.196 | inactive: 0.05 |  | inactive: -0.17 | inactive: 0.025 | inactive: -0.028 | inactive: -0.042 | inactive: -0.014 | inactive: 0.001 | inactive: -0.261 | inactive: 0.135 | inactive: -0.072 | inactive: -0.107 |  | inactive: -0.052 | inactive: 0.043 |  |  | 
VCX3B (UniProt Q9H321) | inactive: 0.032 |  | inactive: 0.064 |  | inactive: 0.029 | inactive: -0.038 | inactive: 0.041 | inactive: -0.001 | inactive: -0.008 | inactive: 0.052 | inactive: -0.003 | inactive: -0.018 | inactive: -0.078 | inactive: -0.063 | inactive: 0.032 | inactive: -0.042 | inactive: -0.026 | inactive: -0.113 | inactive: 0.001 | inactive: 0.014
WARS1 (UniProt G3V5U1) | inactive: -0.795 |  |  | inactive: -0.638 | inactive: 0.136 |  |  | inactive: -0.118 |  | inactive: -0.007 | inactive: -0.03 |  |  | inactive: -0.237 |  |  |  |  |  | 
WASHC3 (UniProt Q9Y3C0) | inactive: 0.011 | inactive: 0.015 | inactive: 0.049 | inactive: -0.008 | inactive: -0.051 | inactive: 0.005 | inactive: -0.006 | inactive: -0.08 | inactive: 0.004 | inactive: 0.017 | inactive: -0.015 | inactive: -0.066 | inactive: -0.058 | inactive: 0.067 | inactive: 0.007 | inactive: -0.002 | inactive: -0.03 | active: -0.245 |  | 
VIRMA (UniProt Q69YN4) |  | inactive: -0.017 |  | inactive: 0.054 | inactive: 0.076 |  |  |  | inactive: 0.01 | inactive: -0.037 | inactive: 0.091 |  | inactive: 0.042 | inactive: -0.142 | inactive: 0.176 |  |  | inactive: -0.075 | inactive: -0.147 | inactive: 0.127
WIPI2 isoform 6 (UniProt Q9Y4P8) |  |  | inactive: -0.013 |  |  |  | inactive: 0.003 |  |  | inactive: 0.118 | inactive: -0.188 | inactive: -0.077 |  |  | inactive: 0.132 |  |  | inactive: -0.018 |  | inactive: 0.153

Two entries from above, tab-delimited.
Target	log2 fold change [1]	log2 fold change [2]	log2 fold change [3]	log2 fold change [4]	log2 fold change [5]	log2 fold change [6]	log2 fold change [7]	log2 fold change [8]	log2 fold change [9]	log2 fold change [10]	log2 fold change [11]	log2 fold change [12]	log2 fold change [13]	log2 fold change [14]	log2 fold change [15]	log2 fold change [16]	log2 fold change [17]	log2 fold change [18]	log2 fold change [19]	log2 fold change [20]
VPS33A (UniProt Q96AX1)	inactive: -0.013	inactive: -0.074	inactive: -0.016	inactive: -0.021	inactive: -0.024	inactive: 0.003	inactive: 0.036	inactive: 0.04	inactive: 0.058	inactive: 0.068	inactive: -0.224	active: -0.359	inactive: 0.043	inactive: 0.039	inactive: -0.004	inactive: 0.059	inactive: 0.035	inactive: -0.208		
VIPAS39 (UniProt Q9H9C1)	inactive: -0.366		inactive: 0.032			inactive: 0.077	inactive: 0.146	inactive: -0.077	inactive: 0.052	inactive: -0.093		inactive: -0.402	inactive: 0.257			inactive: 0.139	inactive: 0.096		inactive: -0.044	inactive: 0.297
